Measurements taken from the supplement of paper PMC8256030.
The list shows a part of the results. Single values are uncertain here, since repeats match poorly.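 HEK293T cells were given each compound shortly before transfection with a reporter in which red mCherry is followed by the SARS-CoV-2 frameshift element and then GFP in the −1 frame, so GFP appears only after frameshifting.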

system: HEK293T; assay: percent viability (nuclei count) relative to control; higher = more viable cells; conditions: 10 µM; 24 h

Structure (SMILES)	percent viability [%]
CCCC(=O)OCOC(=O)C1=C(C)NC(C)=C(C(=O)OC)C1c1cccc(Cl)c1Cl (stereo unspecified) [Clevidipine]	346
O.O.O.O.O=C([O-])CC(O)(CC(=O)[O-])C(=O)[O-].[Li+].[Li+].[Li+]	321
CN(C)CC/C=C1/c2ccccc2COc2ccc(CC(=O)O)cc21 [olopatadine]	187
CO[C@H]1C[C@@H]2CC[C@@H](C)[C@@](O)(O2)C(=O)C(=O)N2CCCC[C@H]2C(=O)O[C@H]([C@H](C)C[C@@H]2CC[C@@H](O)[C@H](OC)C2)CC(=O)[C@H](C)/C=C(\C)[C@@H](O)[C@@H](OC)C(=O)[C@H](C)C[C@H](C)/C=C/C=C/C=C/1C [Rapamune]	78.8
CCCN(CCC)CCc1cccc2c1CC(=O)N2 [ropinirole]	85.3
CCCCOc1cc(C(=O)NCCN(CC)CC)c2ccccc2n1 [cinchocaine]	138
